Literature values, collected in US20070292384A1, “Water soluble micelle-forming and biodegradable cyclotriphosphazene-taxol conjugate anticancer agent and preparation method thereof” (priority 2006, published 2007).

Settings: cited from earlier work

CC(=O)O[C@H]1C(=O)[C@@]2(C)[C@H]([C@H](OC(=O)c3ccccc3)[C@]3(O)C[C@H](OC(=O)[C@H](O)[C@@H](NC(=O)c4ccccc4)c4ccccc4)C(C)=C1C3(C)C)[C@]1(OC(C)=O)CO[C@@H]1C[C@@H]2O [Taxol (free), Taxol]
solubility in water: < 1 µg/mL
